These are yes or no findings as the source states them, for the method shown. Where a sequence is shown, tags or fusion partners need not be part of it.
B1: OsTRX m1 (two-hybrid fusion) (protein, UniProt Q6H7E4 1-173)
chain: MASSALAVSVAKPAASPPVAVAAVTPQRRLLPQCRGVRAAPVVRLRSGRARGVSVVCAAQGQETSFQVPDVTKSTWQSLVVESELPVLVEFWASWCGPCKMIDPVIGKLSKEYEGKLNCYKLNTDENPDIATQFGIRSIPTMMIFKNGEKKDAVIGAVPESTLVSSIDKYIGR
B2: OsTRX y (two-hybrid fusion) (protein, UniProt Q5JMR9 1-168)
chain: MAAFTSTTTAAAASPTPCRPAALVARSSAAPLRSAAPVVVAAGLRRAAAPSRRGATLRVQAKKQTFSSFDELLEKSEKPVLVDFYATWCGPCQYMVPILQEVSEKLGDKIQVVKIDTEKYTSIANRYQIEALPTFIIFKNGKPCHRFEGALPANQLIQQIESALEVAK
B3: OsTRX f (two-hybrid fusion) (protein, UniProt Q8S091 1-187)
chain: MALRLSVSSSHGPASSPAISTCRPAACGRFPALLGGGVASQRRSLTVVSGPETRAVIPVRSSGSDTATVGAEAEAVAVTGQVTEVNKDTFWPIVKSAGPKVVVLDMYTQWCGPCKVMAPKFQEMSEKDQDVVFLKLDCNQDNKSLAKELGIKVVPTFKILKDGKVVKEVTGAKLDELIQAIETVKSS
B4: OsTRX m2 (two-hybrid fusion) (protein, UniProt Q7X8R5 1-180)
chain: MASALAASTAVCSSPLASASASASSARRLRAVPPSRGIRYQALRADSGFAGNRRGGGRGASVVCAVQGQDTSIQVPEVTKSTWQSLVMESELPVLVGYWATWCGPCKMIDPVVGKLSKEYEGKLKCYKLNTDENPDIASQYGVRSIPTMMIFKNGEKKDAVIGAVPESTLIASIEKFVER
B5: OsTRX m5 (two-hybrid fusion) (protein, UniProt Q9ZP20 1-172)
chain: MALETCFRAWATLHAPQPPSSGGSRDRLLLSGAGSSQSKPRLSVASPSPLRPASRFACQCSNVVDEVVVADEKNWDSMVLGSEAPVLVEFWAPWCGPCRMIAPVIDELAKEYVGKIKCCKVNTDDSPNIATNYGIRSIPTVLMFKNGEKKESVIGAVPKTTLATIIDKYVSS

Biological target: OsMORF8 (two-hybrid fusion) (rice)
Test: two-hybrid; Matchmaker GAL4 Two-hybrid System 2, GAL4 DNA binding domain and activation domain fusions cotransformed into yeast AH109; growth on SD/-Trp-Leu (DDO) and SD/-Trp-Leu-His-Ade (QDO) plates

binding, no binding:
B1
B2
B3
B4
B5

From PMC8027827
